Measured values: patent US12029715B2, “Precursor compounds for providing retinoids of the vitamin A5 pathway and uses thereof” (UNIVERSITY OF DEBRECEN, priority 2015, dated 2024)

Experiment: HPLC-MS-MS determination of endogenous retinoid levels in mouse serum, liver and brain
[1] = young wild-type non-vitamin A supplemented mice

Compound	endogenous concentration in brain [1] [ng/g]	endogenous concentration in liver [1] [ng/mg]	endogenous concentration in serum [1] [ng/mL]	endogenous concentration in brain (WT mice) [ng/g]	endogenous concentration in brain, molar (WT mice) [nM]	endogenous concentration in liver (WT mice) [ng/g]	endogenous concentration in liver, molar (WT mice) [nM]	endogenous concentration in serum (WT mice) [ng/mL]	endogenous concentration in serum, molar (WT mice) [nM]
CC1=C(/C=C/C(C)=C/C=C/C(C)CC(=O)O)C(C)(C)CCC1 (stereo not drawn) [ATDHRA, all-trans-13,14-dihydroretinoic acid, reference compound]	38	352	96	–	–	–	–	–	–
CC(C=CC1=C(C)CCCC1(C)C)=CC=CC(C)CC(=O)O (stereo not drawn) [9CDHRA, 9-cis-13,14-dihydroretinoic acid]	–	–	–	7 ± 1	~20	135 ± 12	~700	118 ± 15	~400
